# Assay results as given in PubChem BioAssay AID1671190 (National Center for Advancing Translational Sciences (NCATS), 2021).
# Sequences of proteins named here, by UniProt entry; tags and fusion partners are left off. A change or cut given only in a name is not applied to a line headed by its entry.
# UniProt P18054: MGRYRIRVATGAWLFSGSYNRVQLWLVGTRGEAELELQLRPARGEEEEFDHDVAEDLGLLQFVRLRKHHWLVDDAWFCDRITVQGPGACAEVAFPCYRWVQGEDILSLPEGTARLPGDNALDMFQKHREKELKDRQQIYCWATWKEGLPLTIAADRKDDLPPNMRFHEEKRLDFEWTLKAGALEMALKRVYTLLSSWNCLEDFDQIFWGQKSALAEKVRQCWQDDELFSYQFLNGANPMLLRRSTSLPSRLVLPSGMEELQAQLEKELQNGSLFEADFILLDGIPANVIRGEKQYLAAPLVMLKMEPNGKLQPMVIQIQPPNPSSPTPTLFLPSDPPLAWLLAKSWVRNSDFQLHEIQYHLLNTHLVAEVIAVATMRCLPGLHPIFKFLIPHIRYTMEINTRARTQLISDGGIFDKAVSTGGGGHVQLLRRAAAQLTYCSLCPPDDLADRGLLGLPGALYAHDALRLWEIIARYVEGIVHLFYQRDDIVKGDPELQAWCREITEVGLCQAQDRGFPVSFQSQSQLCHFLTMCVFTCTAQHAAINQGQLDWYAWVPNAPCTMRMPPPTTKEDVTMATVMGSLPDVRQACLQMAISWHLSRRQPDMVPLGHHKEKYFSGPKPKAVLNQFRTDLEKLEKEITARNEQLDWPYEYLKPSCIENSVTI
# The campaign covered roughly 580,000 compounds. About 6,100 (1.1%) were called active. Inconclusive means that the source gave no clear call. Such entries were picked first, then a sample of the others. The call rests on the fitted dose curve; in most records, active means well fitted inhibition curve with a large enough effect; inconclusive means small, poorly fitted or top-dose-only effect, or another doubt; inactive means no such curve, though single readings can be large or run the other way. Potencies beside an inconclusive call are fits to weak or partial responses and may not hold up.
# Target: Polyunsaturated fatty acid lipoxygenase ALOX12 (Homo sapiens) (UniProt P18054)
# Assay: Primary qHTS assay for inhibitors of human arachidonate 12S-lipoxygenase (ALOX12): Round 2
# Settings: purified 12hLO, xylenol orange hydroperoxide absorbance; series mostly up to 108 µM
# Procedure, shortened: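 Purified human 12hLO at 150 nM in 25 mM Hepes, 0.01% Triton X-100, pH 7.0, preincubated 15 min at room temperature with compound. Reaction started with 40 uM arachidonic acid, 30 min at room temperature. Hydroperoxide measured by Fe-xylenol orange, 573/405 nm absorbance ratio.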
# Potency means the concentration at half of the fitted maximal effect.
row,Structure (SMILES),Potency
1,NS(=O)(=O)c1ccc(NC(=O)c2ccc3c(c2)OCO3)cc1,"inconclusive: 35.5 µM [inhibitor, partial curve, poor fit]"
2,O=C(Nc1nn(Cc2ccc(Cl)cc2Cl)cc1Cl)c1nc2ncccn2n1,"inconclusive: 70.8 µM [inhibitor, partial curve, poor fit]"
3,COc1ccc(C(=O)O/N=C(\N)c2ccccc2)cc1OC,"inconclusive: 3.16 µM [inhibitor, full curve, poor fit]"
4,O=C(NCCCN1CCOCC1)c1ccc2c(c1)N(Cc1ccc(Cl)cc1)C(=O)c1ccccc1S2=O (centres undefined),"inconclusive: 44.7 µM [inhibitor, partial curve]"
5,Cc1noc(C)c1C(=O)N1CCC2(CCN(Cc3ccc(C#N)cc3)CC2)CC1,"inconclusive: 31.6 µM [inhibitor, single point]"
6,CC(C)(C)C(=O)CC1(O)C(=O)N(Cc2ccc(Cl)cc2)c2ccccc21 (centres undefined),"inconclusive: 31.6 µM [inhibitor, partial curve, poor fit]"
7,N#Cc1cccc(NC(=O)COc2ccc(C(=O)c3ccccc3)cc2)c1,"inconclusive: 44.7 µM [inhibitor, partial curve, poor fit]"
8,Cc1ccc(NNC(=O)c2cccs2)cc1Cl,active: 8.91 µM
9,Cc1cccc(S(=O)(=O)NNC(=O)Cc2cccn2C)c1,"inconclusive: 112 µM [inhibitor, single point]"
10,CC(C)CCC1=NC2(CCN(C(=O)C3CC34CCCC4)CC2)C(=O)N1 (centres undefined),inactive
11,COc1ccc(C2CCCN2C(=O)NCCn2ccnc2)c(OC)c1 (centres undefined),"inconclusive: 8.91 µM [inhibitor, full curve, poor fit]"
12,CC(CC(=O)C1C(C)C=CCC1(C)C)NCc1ccccc1 (centres undefined),"inconclusive: 44.7 µM [inhibitor, partial curve, poor fit]"
13,CCCCNC(=O)c1nc2ccccc2nc1-c1ccc(F)c(F)c1,"inconclusive: 35.5 µM [inhibitor, partial curve, poor fit]"
14,CC(C)(C)C(=O)Nc1nnc(-c2ccccc2)c(-c2ccccc2)n1,"inconclusive: 112 µM [inhibitor, single point]"
15,O=C(CSc1n[nH]c(-c2cc(Br)ccc2O)n1)N1CCOCC1,inactive
16,CCc1nc(C)c(C(=O)N2CCC(c3[nH]ncc3-c3ccccc3C)CC2)o1,inactive
17,CCOC(=O)CNC(=O)CSc1nnc(Cn2c(=O)sc3ccccc32)n1-c1ccccc1C,inactive
18,Cc1cc(NC(=O)COC(=O)C2(c3ccccc3)CC2)no1,inactive
19,O=C(Nc1ccccc1)C1=C[C@H](c2ccccc2)C[C@H](OCc2ccc(CO)cc2)O1,"inconclusive: 31.6 µM [inhibitor, partial curve, poor fit]"

# As entered above:
# `CCCCNC(=O)c1nc2ccccc2nc1-c1ccc(F)c(F)c1` | Potency: inconclusive: 35.5 µM [inhibitor, partial curve, poor fit]
# `CC(CC(=O)C1C(C)C=CCC1(C)C)NCc1ccccc1` (centres undefined) | Potency: inconclusive: 44.7 µM [inhibitor, partial curve, poor fit]
